Laboratory results from paper doi:10.1101/2023.05.28.542642.
These are yes or no findings as the source states them, for the method shown.

Amino acid sequences for entries named in this document (tags omitted). A change or cut given only in a name is not applied to a line headed by its entry.
UniProt P21707, whole entry, looked up, stated change not applied: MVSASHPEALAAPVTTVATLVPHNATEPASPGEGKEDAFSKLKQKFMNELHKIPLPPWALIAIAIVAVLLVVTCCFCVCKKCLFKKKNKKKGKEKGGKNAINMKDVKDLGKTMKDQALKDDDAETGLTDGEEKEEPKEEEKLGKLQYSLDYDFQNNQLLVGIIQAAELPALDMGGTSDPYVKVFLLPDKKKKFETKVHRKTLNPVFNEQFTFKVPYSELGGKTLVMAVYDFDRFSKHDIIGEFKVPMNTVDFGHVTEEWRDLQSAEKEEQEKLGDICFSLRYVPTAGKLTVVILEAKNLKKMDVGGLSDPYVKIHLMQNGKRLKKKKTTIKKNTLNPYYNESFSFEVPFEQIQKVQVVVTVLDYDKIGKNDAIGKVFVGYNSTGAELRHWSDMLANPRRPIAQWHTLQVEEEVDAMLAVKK

Target: C2AB domain of synaptotagmin-1 (aa 97-421) labeled with Alexa Fluor 488 at S342C (Rattus norvegicus) (UniProt P21707)
Experiment: fluorescence polarisation

KKKKKRFSFKKSFKLSGFSFKKNKK [MARCKS effector domain (aa 151-175)]
binding: no binding
